In PubChem BioAssay AID1347131 (National Center for Advancing Translational Sciences (NCATS), 2019):
About 2,000 (0.49%) of roughly 410,000 compounds were called active. This list was built around the results that the source calls inconclusive (neither active nor inactive); the mix of calls is not that of the screen. Calls come from the whole dose curve; tested in HEK293 reporter line. Potencies beside an inconclusive call are fits to weak or partial responses and may not hold up.

Assay: qHTS Assay for Foot and Mouth Disease Virus Antivirals: Primary Screen against the MLPCN compound library; note: nearly all actives have a fitted effect of over 55% in size
Conditions: FMDV antiviral cell-based qHTS; series mostly up to 57.9 µM
Potency is the fitted concentration of half-maximal effect.

Row | SMILES | Potency
1 | COc1ccccc1NC(=O)CSc1nc(O)cc(=O)n1-c1ccccc1OC | inconclusive: 15.8 µM [inhibitor, partial curve, poor fit]
2 | COc1ccc2oc(C(=O)NCCc3ccccc3)c(C)c2c1 | inconclusive: 22.4 µM [inhibitor, single point]
3 | CC(=O)[O][Hg][c]1ccccc1 | inconclusive: 4.47 µM [inhibitor, full curve, poor fit]
4 | CCN1CCN(C(=O)c2cn(CC)c3ccc(S(=O)(=O)N(C)C)cc3c2=O)CC1 | inconclusive: 3.16 µM [inhibitor, full curve]
5 | CCC(C)c1ccc(NC(=O)c2cnn3c(C(F)F)cc(C)nc23)cc1 (stereo unspecified) | inconclusive: 5.62 µM [inhibitor, partial curve, poor fit]
6 | COCc1nn2cc(-c3ccc(C)cc3)nc2s1 | inconclusive: 35.5 µM [inhibitor, single point]
7 | C[C@H](NC(=O)c1nc[nH]c1C(=O)NCc1ccc(CNC(=O)OC(C)(C)C)cc1)c1ccccc1 | inconclusive: 31.6 µM [inhibitor, single point]
8 | COc1ccc(OC)c(CN2CCN(C(=O)[C@@H](NC(=O)c3cccc(C)c3)C(C)C)CC2)c1 | inconclusive: 25.1 µM [inhibitor, partial curve, poor fit]
9 | O=C(CSc1n[nH]c(-c2ccco2)n1)Nc1sc2c(c1C(=O)Nc1ccccc1)CCCC2 | inconclusive: 20 µM [inhibitor, single point]
10 | O=C(/C=C/c1cccc(C(F)(F)F)c1)Nc1cccc(C(F)(F)F)c1 | inconclusive: 17.8 µM [inhibitor, single point]
11 | O=C1NC(=O)N(Cc2ccc(F)cc2)C(=O)/C1=C\C=C\c1ccco1 | inconclusive: 28.2 µM [inhibitor, partial curve, poor fit]
12 | CCOC(=O)C(C)n1cnc2c(cnn2-c2ccc(Cl)cc2)c1=O (stereo unspecified) | inconclusive: 39.8 µM [inhibitor, single point]
13 | Cc1ccc(Nc2nc(CSc3nnc(-c4ccncc4)n3C)cs2)cc1 | inconclusive: 39.8 µM [inhibitor, single point]
14 | Cc1cc(N2CCN(c3nc4ccccc4s3)CC2)n2ncnc2n1 | inconclusive: 11.2 µM [inhibitor, partial curve, poor fit]
15 | O=c1c([N+](=O)[O-])cccn1Cc1ccccc1Cl | inconclusive: 2.82 µM [inhibitor, full curve]
16 | Cc1oc(-c2ccc(Cl)cc2)nc1CN1CCC(C(=O)N2CCc3ccccc3C2)CC1 | inconclusive: 22.4 µM [inhibitor, partial curve, poor fit]
17 | O=C1NC(=O)N(CCc2ccc(F)cc2)C(=O)/C1=C/C=C/c1ccccc1 | active: 10 µM
18 | O=C(C1CCCN(S(=O)(=O)c2cccc3nsnc23)C1)N1CCN(c2ccccc2F)CC1 (stereo unspecified) | inconclusive: 7.94 µM [inhibitor, partial curve]

For convenience, part of the list above:
Row | SMILES | Potency
11 | O=C1NC(=O)N(Cc2ccc(F)cc2)C(=O)/C1=C\C=C\c1ccco1 | inconclusive: 28.2 µM [inhibitor, partial curve, poor fit]
12 | CCOC(=O)C(C)n1cnc2c(cnn2-c2ccc(Cl)cc2)c1=O (stereo unspecified) | inconclusive: 39.8 µM [inhibitor, single point]
13 | Cc1ccc(Nc2nc(CSc3nnc(-c4ccncc4)n3C)cs2)cc1 | inconclusive: 39.8 µM [inhibitor, single point]
14 | Cc1cc(N2CCN(c3nc4ccccc4s3)CC2)n2ncnc2n1 | inconclusive: 11.2 µM [inhibitor, partial curve, poor fit]
15 | O=c1c([N+](=O)[O-])cccn1Cc1ccccc1Cl | inconclusive: 2.82 µM [inhibitor, full curve]
16 | Cc1oc(-c2ccc(Cl)cc2)nc1CN1CCC(C(=O)N2CCc3ccccc3C2)CC1 | inconclusive: 22.4 µM [inhibitor, partial curve, poor fit]
17 | O=C1NC(=O)N(CCc2ccc(F)cc2)C(=O)/C1=C/C=C/c1ccccc1 | active: 10 µM
18 | O=C(C1CCCN(S(=O)(=O)c2cccc3nsnc23)C1)N1CCN(c2ccccc2F)CC1 (stereo unspecified) | inconclusive: 7.94 µM [inhibitor, partial curve]

Further compounds:

Row | SMILES | Potency
19 | O=C(Nc1ccccc1F)c1ccc2c(Cl)c3c(nc2c1)CCC3 | inconclusive: 10 µM [inhibitor, partial curve, poor fit]
20 | Cc1cc(Oc2ccccc2)nc(SCC(=O)Nc2ccc(Cl)c(Cl)c2)n1 | inconclusive: 31.6 µM [inhibitor, partial curve, poor fit]
21 | Cc1cccc(Nc2nnc(SCC(=O)NC3CCCc4ccccc43)s2)c1C (stereo unspecified) | inconclusive: 39.8 µM [inhibitor, partial curve, poor fit]
22 | O=C(CNc1cccc(S(=O)(=O)N2CCOCC2)c1)Nc1ccc(C(F)(F)F)cc1 | inconclusive: 31.6 µM [inhibitor, partial curve, poor fit]
23 | O=C(N/N=C/c1cccc([N+](=O)[O-])c1)c1ccc(CN2CCOCC2)cc1 | inactive
24 | CN1CCN(c2ccc(Cl)cc2NC(=O)C2COc3ccccc3O2)CC1 (stereo unspecified) | inconclusive: 35.5 µM [inhibitor, partial curve, poor fit]
25 | COC(=O)c1ccc(NC(=O)c2ccc(CN3CCOCC3)cc2)cc1 | inconclusive: 22.4 µM [inhibitor, partial curve, poor fit]
26 | CC(OC(=O)CCCc1nc2ccccc2s1)C(=O)NC(N)=O (stereo unspecified) | inconclusive: 15.8 µM [inhibitor, partial curve]
27 | CN(C)CCCN(C(=O)c1cc2cc([N+](=O)[O-])ccc2s1)c1nc2cc3c(cc2s1)OCCO3 | inconclusive: 39.8 µM [inhibitor, single point]
28 | CC(C)(C)S(=O)N1Cc2cc(C(=O)NCc3ccc4c(c3)OCO4)nc(-c3cccc(-c4ccncc4)c3)c2[C@H]1CCO (stereo partly specified) | inconclusive: 31.6 µM [inhibitor, partial curve]
29 | N=c1n(Cc2ccccc2)c2ccccc2n1CC(O)COc1ccc(Cl)cc1Cl (stereo unspecified) | inconclusive: 35.5 µM [inhibitor, partial curve, poor fit]
30 | CC[C@H](C)Cc1cn([C@@H](CCCCNC(=O)OC(C)(C)C)C(=O)NCCCCCCCCCCC(=O)N2CCN(C(=O)OC(C)(C)C)CC2)nn1 | inconclusive: 14.1 µM [inhibitor, partial curve, poor fit]
31 | O=C(NCCc1ccc(C(F)(F)F)cc1)C1CCC(=O)N(CCCc2ccccc2)C1 (stereo unspecified) | inconclusive: 3.16 µM [inhibitor, full curve]
32 | O=C(Nc1ccc([N+](=O)[O-])cc1)C(=O)Nc1cccc(C(=O)O)c1 | inconclusive: 10 µM [inhibitor, partial curve, poor fit]
33 | CCCN1C/C(=C/c2ccc3c(c2)OCO3)C(=O)/C(=C/c2ccc3c(c2)OCO3)C1 | inconclusive: 17.8 µM [inhibitor, partial curve, poor fit]
34 | Cn1cnc([N+](=O)[O-])c1S(=O)(=O)Oc1ccc(Cl)cc1 | inconclusive: 20 µM [inhibitor, partial curve, poor fit]
35 | CCOc1ccccc1C(=O)NC(C(=O)N(C)Cc1ccc2c(c1)OCO2)C(C)C (stereo unspecified) | inactive
36 | CC(C(=O)Nc1ccccc1-c1ccccc1)N(C)Cc1nc2ccccc2c(=O)[nH]1 (stereo unspecified) | inactive
